Publication doi:10.1101/043935
Where two headings read alike, the source gives them in different places. Results are given in words; binding and its absence hold for the method and conditions named. Binding seen in cells or lysates may run through a third protein. These calls come from enrichment with a bait or labelling near it, and not all partners need be listed. Sequences can lack the tags named with a protein. Blank lines part the entries; values can stand above or below the molecule they belong to.

Amino acid sequences for entries named in this document (tags omitted).
UniProt O95793: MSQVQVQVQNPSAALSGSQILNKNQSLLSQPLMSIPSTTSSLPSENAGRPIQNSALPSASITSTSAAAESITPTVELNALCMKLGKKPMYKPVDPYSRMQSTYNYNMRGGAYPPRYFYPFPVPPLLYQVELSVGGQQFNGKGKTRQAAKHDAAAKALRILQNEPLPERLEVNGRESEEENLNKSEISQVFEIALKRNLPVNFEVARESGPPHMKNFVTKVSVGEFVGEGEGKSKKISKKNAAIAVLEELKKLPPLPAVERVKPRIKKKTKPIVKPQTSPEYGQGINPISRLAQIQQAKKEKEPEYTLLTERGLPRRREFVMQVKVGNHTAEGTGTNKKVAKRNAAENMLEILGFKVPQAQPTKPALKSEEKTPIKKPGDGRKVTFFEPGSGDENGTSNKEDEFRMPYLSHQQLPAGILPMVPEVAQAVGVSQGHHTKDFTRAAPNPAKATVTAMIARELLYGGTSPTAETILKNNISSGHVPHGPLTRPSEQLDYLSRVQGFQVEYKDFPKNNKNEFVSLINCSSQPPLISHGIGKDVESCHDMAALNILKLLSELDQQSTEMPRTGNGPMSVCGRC
UniProt Q08945: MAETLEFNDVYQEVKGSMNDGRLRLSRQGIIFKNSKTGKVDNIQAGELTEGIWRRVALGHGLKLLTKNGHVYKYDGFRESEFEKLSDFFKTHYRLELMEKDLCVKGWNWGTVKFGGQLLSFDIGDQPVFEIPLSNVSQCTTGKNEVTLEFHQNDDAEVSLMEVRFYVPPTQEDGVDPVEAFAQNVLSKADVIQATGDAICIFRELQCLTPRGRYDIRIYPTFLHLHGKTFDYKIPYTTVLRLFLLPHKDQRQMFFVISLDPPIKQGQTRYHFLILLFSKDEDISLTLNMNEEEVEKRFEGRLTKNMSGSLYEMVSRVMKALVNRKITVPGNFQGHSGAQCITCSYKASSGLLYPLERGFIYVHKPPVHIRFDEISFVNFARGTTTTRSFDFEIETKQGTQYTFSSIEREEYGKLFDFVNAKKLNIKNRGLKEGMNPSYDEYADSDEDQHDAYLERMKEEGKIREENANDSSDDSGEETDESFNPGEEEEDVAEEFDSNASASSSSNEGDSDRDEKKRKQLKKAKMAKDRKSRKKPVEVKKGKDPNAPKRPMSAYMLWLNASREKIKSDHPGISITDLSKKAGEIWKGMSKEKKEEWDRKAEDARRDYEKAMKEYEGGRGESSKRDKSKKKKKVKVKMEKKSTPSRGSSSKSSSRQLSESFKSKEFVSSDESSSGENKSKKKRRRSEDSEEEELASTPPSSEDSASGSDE
UniProt Q9Y5B9: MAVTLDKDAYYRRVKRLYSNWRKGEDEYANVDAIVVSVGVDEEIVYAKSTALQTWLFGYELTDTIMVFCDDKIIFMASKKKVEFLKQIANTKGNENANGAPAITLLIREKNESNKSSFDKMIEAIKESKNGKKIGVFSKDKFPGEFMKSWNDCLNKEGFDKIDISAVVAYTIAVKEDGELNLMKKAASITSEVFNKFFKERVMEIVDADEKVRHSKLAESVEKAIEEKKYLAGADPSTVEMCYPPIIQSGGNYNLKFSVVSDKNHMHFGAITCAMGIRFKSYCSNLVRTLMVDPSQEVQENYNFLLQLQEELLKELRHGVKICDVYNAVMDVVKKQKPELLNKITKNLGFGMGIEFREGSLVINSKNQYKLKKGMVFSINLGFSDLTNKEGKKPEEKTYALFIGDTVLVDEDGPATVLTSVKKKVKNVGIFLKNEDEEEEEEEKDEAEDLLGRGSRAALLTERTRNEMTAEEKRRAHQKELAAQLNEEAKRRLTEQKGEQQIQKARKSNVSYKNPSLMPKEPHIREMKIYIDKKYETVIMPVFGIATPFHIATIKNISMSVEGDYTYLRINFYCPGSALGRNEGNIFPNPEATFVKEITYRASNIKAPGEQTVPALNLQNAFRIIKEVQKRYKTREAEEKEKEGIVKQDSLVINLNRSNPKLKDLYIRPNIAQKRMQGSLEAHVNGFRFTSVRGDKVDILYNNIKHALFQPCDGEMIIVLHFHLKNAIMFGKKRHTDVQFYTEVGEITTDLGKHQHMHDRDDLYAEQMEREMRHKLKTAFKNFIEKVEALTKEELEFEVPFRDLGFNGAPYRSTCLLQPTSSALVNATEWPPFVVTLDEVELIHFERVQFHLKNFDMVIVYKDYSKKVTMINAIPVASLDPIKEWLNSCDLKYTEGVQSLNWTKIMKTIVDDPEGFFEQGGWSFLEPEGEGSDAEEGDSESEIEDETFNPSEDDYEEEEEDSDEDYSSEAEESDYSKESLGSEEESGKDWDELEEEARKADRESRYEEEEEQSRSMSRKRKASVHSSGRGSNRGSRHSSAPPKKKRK
UniProt P78527: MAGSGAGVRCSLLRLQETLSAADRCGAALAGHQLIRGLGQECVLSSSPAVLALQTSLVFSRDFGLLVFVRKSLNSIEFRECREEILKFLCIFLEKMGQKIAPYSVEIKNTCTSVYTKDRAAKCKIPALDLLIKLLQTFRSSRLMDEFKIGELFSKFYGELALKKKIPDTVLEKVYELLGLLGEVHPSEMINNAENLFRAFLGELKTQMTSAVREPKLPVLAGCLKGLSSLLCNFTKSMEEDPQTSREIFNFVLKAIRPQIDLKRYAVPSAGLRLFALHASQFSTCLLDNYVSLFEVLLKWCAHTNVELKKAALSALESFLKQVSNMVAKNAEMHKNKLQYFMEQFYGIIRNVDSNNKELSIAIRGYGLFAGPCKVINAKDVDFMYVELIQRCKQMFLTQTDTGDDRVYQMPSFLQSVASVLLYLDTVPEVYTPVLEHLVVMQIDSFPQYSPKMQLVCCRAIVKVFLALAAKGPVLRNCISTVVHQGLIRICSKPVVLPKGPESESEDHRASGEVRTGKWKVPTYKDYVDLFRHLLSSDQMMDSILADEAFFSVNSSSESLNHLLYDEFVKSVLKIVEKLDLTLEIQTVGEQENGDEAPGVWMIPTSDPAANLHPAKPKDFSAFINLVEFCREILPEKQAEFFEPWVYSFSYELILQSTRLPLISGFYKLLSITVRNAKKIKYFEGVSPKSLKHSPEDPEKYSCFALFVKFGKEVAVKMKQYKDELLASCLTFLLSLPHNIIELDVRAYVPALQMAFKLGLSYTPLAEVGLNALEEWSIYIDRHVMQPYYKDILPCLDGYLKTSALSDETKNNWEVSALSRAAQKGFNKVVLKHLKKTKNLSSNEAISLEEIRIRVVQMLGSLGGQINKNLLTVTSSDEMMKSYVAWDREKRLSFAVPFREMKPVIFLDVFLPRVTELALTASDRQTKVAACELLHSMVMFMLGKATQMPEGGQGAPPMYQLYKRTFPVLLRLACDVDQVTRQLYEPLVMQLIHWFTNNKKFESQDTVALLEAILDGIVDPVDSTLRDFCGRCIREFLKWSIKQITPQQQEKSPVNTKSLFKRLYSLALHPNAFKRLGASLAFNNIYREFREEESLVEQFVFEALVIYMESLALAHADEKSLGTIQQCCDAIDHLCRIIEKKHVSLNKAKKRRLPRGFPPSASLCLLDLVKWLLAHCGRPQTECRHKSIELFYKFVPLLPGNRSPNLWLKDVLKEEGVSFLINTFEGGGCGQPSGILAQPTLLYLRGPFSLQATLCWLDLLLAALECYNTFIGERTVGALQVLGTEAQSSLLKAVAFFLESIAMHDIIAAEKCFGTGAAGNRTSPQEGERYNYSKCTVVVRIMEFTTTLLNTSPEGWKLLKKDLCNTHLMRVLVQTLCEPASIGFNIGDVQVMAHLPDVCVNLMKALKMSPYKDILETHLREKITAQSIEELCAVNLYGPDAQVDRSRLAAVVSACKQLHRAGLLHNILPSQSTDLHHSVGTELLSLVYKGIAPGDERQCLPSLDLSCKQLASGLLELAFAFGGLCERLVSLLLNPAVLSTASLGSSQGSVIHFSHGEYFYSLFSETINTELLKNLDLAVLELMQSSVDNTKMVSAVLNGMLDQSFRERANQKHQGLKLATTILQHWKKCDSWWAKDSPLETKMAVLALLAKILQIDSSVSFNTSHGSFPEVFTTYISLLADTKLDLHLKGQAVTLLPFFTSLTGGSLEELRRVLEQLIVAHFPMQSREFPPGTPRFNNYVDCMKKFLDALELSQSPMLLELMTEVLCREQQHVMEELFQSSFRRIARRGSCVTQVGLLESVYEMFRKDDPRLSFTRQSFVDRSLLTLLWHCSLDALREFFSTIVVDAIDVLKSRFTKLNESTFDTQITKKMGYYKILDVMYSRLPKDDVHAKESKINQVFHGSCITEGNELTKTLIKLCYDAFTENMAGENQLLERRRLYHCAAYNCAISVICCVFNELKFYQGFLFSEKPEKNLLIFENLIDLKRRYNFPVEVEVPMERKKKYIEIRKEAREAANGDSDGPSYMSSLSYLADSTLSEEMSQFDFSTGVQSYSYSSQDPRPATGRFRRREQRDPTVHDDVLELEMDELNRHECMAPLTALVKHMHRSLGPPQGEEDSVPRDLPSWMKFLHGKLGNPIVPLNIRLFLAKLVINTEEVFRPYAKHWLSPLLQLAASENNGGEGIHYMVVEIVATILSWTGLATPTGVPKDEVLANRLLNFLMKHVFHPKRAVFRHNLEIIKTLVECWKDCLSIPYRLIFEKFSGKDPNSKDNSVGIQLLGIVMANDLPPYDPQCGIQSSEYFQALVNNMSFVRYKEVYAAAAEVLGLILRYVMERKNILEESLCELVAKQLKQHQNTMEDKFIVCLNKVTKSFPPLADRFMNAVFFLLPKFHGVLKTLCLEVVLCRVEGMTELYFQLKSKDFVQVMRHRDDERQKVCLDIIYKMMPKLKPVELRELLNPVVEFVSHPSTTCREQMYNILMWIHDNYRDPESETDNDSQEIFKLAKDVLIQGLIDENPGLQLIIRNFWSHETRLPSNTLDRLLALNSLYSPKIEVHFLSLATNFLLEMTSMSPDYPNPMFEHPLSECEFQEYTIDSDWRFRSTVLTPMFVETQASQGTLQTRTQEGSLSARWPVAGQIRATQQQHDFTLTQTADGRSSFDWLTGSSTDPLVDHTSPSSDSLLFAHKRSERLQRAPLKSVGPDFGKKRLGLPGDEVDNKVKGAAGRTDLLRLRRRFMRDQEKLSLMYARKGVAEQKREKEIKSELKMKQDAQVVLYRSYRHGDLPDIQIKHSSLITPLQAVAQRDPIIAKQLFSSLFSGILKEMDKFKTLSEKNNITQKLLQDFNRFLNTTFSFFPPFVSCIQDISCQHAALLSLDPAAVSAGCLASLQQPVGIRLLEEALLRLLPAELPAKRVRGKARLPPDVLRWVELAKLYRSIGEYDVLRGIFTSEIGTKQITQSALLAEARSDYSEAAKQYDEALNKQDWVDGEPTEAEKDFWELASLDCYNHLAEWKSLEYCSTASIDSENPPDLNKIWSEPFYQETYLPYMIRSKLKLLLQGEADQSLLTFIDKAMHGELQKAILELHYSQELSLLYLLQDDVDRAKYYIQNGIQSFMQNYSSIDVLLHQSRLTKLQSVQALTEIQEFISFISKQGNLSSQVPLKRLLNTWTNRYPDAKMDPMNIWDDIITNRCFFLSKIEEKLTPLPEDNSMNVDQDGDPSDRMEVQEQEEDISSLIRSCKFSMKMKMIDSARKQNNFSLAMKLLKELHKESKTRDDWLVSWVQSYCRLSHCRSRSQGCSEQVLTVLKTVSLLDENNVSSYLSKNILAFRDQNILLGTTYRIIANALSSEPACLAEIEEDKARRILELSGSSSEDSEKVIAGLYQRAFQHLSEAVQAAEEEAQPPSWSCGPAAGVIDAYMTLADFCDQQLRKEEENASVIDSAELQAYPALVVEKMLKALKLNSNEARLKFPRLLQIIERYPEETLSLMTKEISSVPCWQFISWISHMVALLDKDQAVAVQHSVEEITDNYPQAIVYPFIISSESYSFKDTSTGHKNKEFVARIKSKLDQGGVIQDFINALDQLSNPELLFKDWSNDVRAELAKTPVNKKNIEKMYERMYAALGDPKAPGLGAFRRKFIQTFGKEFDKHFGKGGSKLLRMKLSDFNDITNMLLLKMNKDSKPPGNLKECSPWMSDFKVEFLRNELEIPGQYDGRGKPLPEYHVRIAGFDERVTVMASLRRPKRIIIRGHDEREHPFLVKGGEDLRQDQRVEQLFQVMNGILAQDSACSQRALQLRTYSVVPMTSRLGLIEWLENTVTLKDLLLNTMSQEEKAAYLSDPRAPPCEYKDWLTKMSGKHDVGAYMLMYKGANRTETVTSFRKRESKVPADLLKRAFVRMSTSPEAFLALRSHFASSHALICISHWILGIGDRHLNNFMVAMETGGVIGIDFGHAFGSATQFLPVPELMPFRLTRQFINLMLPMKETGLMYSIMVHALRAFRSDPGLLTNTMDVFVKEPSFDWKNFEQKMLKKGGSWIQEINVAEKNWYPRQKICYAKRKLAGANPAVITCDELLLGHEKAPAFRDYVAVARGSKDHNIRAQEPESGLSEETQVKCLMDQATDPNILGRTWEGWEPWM

What was measured:
[1] = biological target: T1, Protein A-tagged Nol12 (human) (UniProt Q9UGY1); assay: affinity purification with mass spectrometry
T1 sequence: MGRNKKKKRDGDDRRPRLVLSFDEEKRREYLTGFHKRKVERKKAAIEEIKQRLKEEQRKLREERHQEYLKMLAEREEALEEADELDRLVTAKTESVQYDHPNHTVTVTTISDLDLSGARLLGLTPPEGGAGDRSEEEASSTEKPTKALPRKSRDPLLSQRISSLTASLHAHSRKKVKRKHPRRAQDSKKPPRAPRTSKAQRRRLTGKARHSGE

[2] = biological target: T1, Protein A-tagged Nol12 (human); assay: affinity purification with mass spectrometry; remark: listed apart in the source

Molecule: Ddx5 (from UniProt P17844 1-614)
- binding [1]: binds

Molecule: Stau1 (from UniProt O95793 1-577)
- binding [1]: binds

Molecule: Ddx21 (from UniProt Q9NR30 1-783)
- binding [1]: binds

Molecule: Rrp5 (from UniProt Q14690 1-1871)
- binding [1]: binds

Molecule: SSRP1 (from UniProt Q08945 1-709)
- binding [1]: binds

Molecule: CKII subunit CSNK2A1 (from UniProt P68400 1-391)
- binding [1]: binds

Molecule: Srsf1 (from UniProt Q07955 1-248)
- binding [1]: binds

Molecule: SUPT16H (from UniProt Q9Y5B9 1-1047)
- binding [1]: binds

Molecule: snRNP200 (from UniProt O75643 1-2136)
- binding [1]: binds

B2: Rcl1 (protein, UniProt Q9Y2P8 1-373)
chain: MATQAHSLSYAGCNFLRQRLVLSTLSGRPVKIRKIRARDDNPGLRDFEASFIRLLDKITNGSRIEINQTGTTLYYQPGLLYGGSVEHDCSVLRGIGYYLESLLCLAPFMKHPLKIVLRGVTNDQVDPSVDVLKATALPLLKQFGIDGESFELKIVRRGMPPGGGGEVVFSCPVRKVLKPIQLTDPGKIKRIRGMAYSVRVSPQMANRIVDSARSILNKFIPDIYIYTDHMKGVNSGKSPGFGLSLVAETTSGTFLSAELASNPQGQGAAVLPEDLGRNCARLLLEEIYRGGCVDSTNQSLALLLMTLGQQDVSKVLLGPLSPYTIEFLRHLKSFFQIMFKIETKPCGEELKGGDKVLMTCVGIGFSNLSKTLK
- binding [2]: binds weakly

Further lines, results first:

- binding [1]: binds
Molecule: Ddx17 (from UniProt Q92841 1-729)

- binding [1]: binds
Molecule: Utp10 (from UniProt Q9H583 1-2144)

- binding [1]: binds
Molecule: PRKDC, the catalytic component of DNA-PK (from UniProt P78527 1-4128)

- binding [1]: binds
Molecule: phosphatase PP1A (from UniProt P62136 1-330)

- binding [2]: binds
B1: Ftsj3 (protein, UniProt Q8IY81 1-847)
chain: MGKKGKVGKSRRDKFYHLAKETGYRSRSAFKLIQLNRRFQFLQKARALLDLCAAPGGWLQVAAKFMPVSSLIVGVDLVPIKPLPNVVTLQQDITTERCRQALRKELKTWKVDVVLNDGAPNVGASWVHDAYSQAHLTLMALRLACDFLARGGSFITKVFRSRDYQPLLWIFQQLFRRVQATKPQASRHESAEIFVVCQGFLAPDKVDSKFFDPKFAFKEVEVQAKTVTELVTKKKPKAEGYAEGDLTLYHRTSVTDFLRAANPVDFLSKASEIMVDDEELAQHPATTEDIRVCCQDIRVLGRKELRSLLNWRTKLRRYVAKKLKEQAKALDISLSSGEEDEGDEEDSTAGTTKQPSKEEEEEEEEEQLNQTLAEMKAQEVAELKRKKKKLLREQRKQRERVELKMDLPGVSIADEGETGMFSLSTIRGHQLLEEVTQGDMSAADTFLSDLPRDDIYVSDVEDDGDDTSLDSDLDPEELAGVRGHQGLRDQKRMRLTEVQDDKEEEEEENPLLVPLEEKAVLQEEQANLWFSKGSFAGIEDDADEALEISQAQLLFENRRKGRQQQQKQQLPQTPPSCLKTEIMSPLYQDEAPKGTEASSGTEAATGLEGEEKDGISDSDSSTSSEEEESWEPLRGKKRSRGPKSDDDGFEIVPIEDPAKHRILDPEGLALGAVIASSKKAKRDLIDNSFNRYTFNEDEGELPEWFVQEEKQHRIRQLPVGKKEVEHYRKRWREINARPIKKVAEAKARKKRRMLKRLEQTRKKAEAVVNTVDISEREKVAQLRSLYKKAGLGKEKRHVTYVVAKKGVGRKVRRPAGVRGHFKVVDSRMKKDQRAQQRKEQKKKHKRK

- binding [2]: binds weakly
B3: Xrn2 (protein, UniProt Q9H0D6 1-950)
chain: MGVPAFFRWLSRKYPSIIVNCVEEKPKECNGVKIPVDASKPNPNDVEFDNLYLDMNGIIHPCTHPEDKPAPKNEDEMMVAIFEYIDRLFSIVRPRRLLYMAIDGVAPRAKMNQQRSRRFRASKEGMEAAVEKQRVREEILAKGGFLPPEEIKERFDSNCITPGTEFMDNLAKCLRYYIADRLNNDPGWKNLTVILSDASAPGEGEHKIMDYIRRQRAQPNHDPNTHHCLCGADADLIMLGLATHEPNFTIIREEFKPNKPKPCGLCNQFGHEVKDCEGLPREKKGKHDELADSLPCAEGEFIFLRLNVLREYLERELTMASLPFTFDVERSIDDWVFMCFFVGNDFLPHLPSLEIRENAIDRLVNIYKNVVHKTGGYLTESGYVNLQRVQMIMLAVGEVEDSIFKKRKDDEDSFRRRQKEKRKRMKRDQPAFTPSGILTPHALGSRNSPGSQVASNPRQAAYEMRMQNNSSPSISPNTSFTSDGSPSPLGGIKRKAEDSDSEPEPEDNVRLWEAGWKQRYYKNKFDVDAADEKFRRKVVQSYVEGLCWVLRYYYQGCASWKWYYPFHYAPFASDFEGIADMPSDFEKGTKPFKPLEQLMGVFPAASGNFLPPSWRKLMSDPDSSIIDFYPEDFAIDLNGKKYAWQGVALLPFVDERRLRAALEEVYPDLTPEETRRNSLGGDVLFVGKHHPLHDFILELYQTGSTEPVEVPPELCHGIQGKFSLDEEAILPDQIVCSPVPMLRDLTQNTVVSINFKDPQFAEDYIFKAVMLPGARKPAAVLKPSDWEKSSNGRQWKPQLGFNRDRRPVHLDQAAFRTLGHVMPRGSGTGIYSNAAPPPVTYQGNLYRPLLRGQAQIPKLMSNMRPQDSWRGPPPLFQQQRFDRGVGAEPLLPWNRMLQTQNAAFQPNQYQMLAGPGGYPPRRDDRGGRQGYPREGRKYPLPPPSGRYNWN

- binding [2]: binds
B4: MYBBP1A (protein, UniProt Q9BQG0 1-1328)
chain: MESRDPAQPMSPGEATQSGARPADRYGLLKHSREFLDFFWDIAKPEQETRLAATEKLLEYLRGRPKGSEMKYALKRLITGLGVGRETARPCYSLALAQLLQSFEDLPLCSILQQIQEKYDLHQVKKAMLRPALFANLFGVLALFQSGRLVKDQEALMKSVKLLQALAQYQNHLQEQPRKALVDILSEVSKATLQEILPEVLKADLNIILSSPEQLELFLLAQQKVPSKLKKLVGSVNLFSDENVPRLVNVLKMAASSVKKDRKLPAIALDLLRLALKEDKFPRFWKEVVEQGLLKMQFWPASYLCFRLLGAALPLLTKEQLHLVMQGDVIRHYGEHVCTAKLPKQFKFAPEMDDYVGTFLEGCQDDPERQLAVLVAFSSVTNQGLPVTPTFWRVVRFLSPPALQGYVAWLRAMFLQPDLDSLVDFSTNNQKKAQDSSLHMPERAVFRLRKWIIFRLVSIVDSLHLEMEEALTEQVARFCLFHSFFVTKKPTSQIPETKHPFSFPLENQAREAVSSAFFSLLQTLSTQFKQAPGQTQGGQPWTYHLVQFADLLLNHSHNVTTVTPFTAQQRQAWDRMLQTLKELEAHSAEARAAAFQHLLLLVGIHLLKSPAESCDLLGDIQTCIRKSLGEKPRRSRTKTIDPQEPPWVEVLVEILLALLAQPSHLMRQVARSVFGHICSHLTPRALQLILDVLNPETSEDENDRVVVTDDSDERRLKGAEDKSEEGEDNRSSESEEESEGEESEEEERDGDVDQGFREQLMTVLQAGKALGGEDSENEEELGDEAMMALDQSLASLFAEQKLRIQARRDEKNKLQKEKALRRDFQIRVLDLVEVLVTKQPENALVLELLEPLLSIIRRSLRSSSSKQEQDLLHKTARIFTHHLCRARRYCHDLGERAGALHAQVERLVQQAGRQPDSPTALYHFNASLYLLRVLKGNTAEGCVHETQEKQKAGTDPSHMPTGPQAASCLDLNLVTRVYSTALSSFLTKRNSPLTVPMFLSLFSRHPVLCQSLLPILVQHITGPVRPRHQACLLLQKTLSMREVRSCFEDPEWKQLMGQVLAKVTENLRVLGEAQTKAQHQQALSSLELLNVLFRTCKHEKLTLDLTVLLGVLQGQQQSLQQGAHSTGSSRLHDLYWQAMKTLGVQRPKLEKKDAKEIPSATQSPISKKRKKKGFLPETKKRKKRKSEDGTPAEDGTPAATGGSQPPSMGRKKRNRTKAKVPAQANGTPTTKSPAPGAPTRSPSTPAKSPKLQKKNQKPSQVNGAPGSPTEPAGQKQHQKALPKKGVLGKSPLSALARKKARLSLVIRSPSLLQSGAKKKAQVRKAGKP

- binding [2]: binds
B5: NONO (protein, UniProt Q15233 1-471)
chain: MQSNKTFNLEKQNHTPRKHHQHHHQQQHHQQQQQQPPPPPIPANGQQASSQNEGLTIDLKNFRKPGEKTFTQRSRLFVGNLPPDITEEEMRKLFEKYGKAGEVFIHKDKGFGFIRLETRTLAEIAKVELDNMPLRGKQLRVRFACHSASLTVRNLPQYVSNELLEEAFSVFGQVERAVVIVDDRGRPSGKGIVEFSGKPAARKALDRCSEGSFLLTTFPRPVTVEPMDQLDDEEGLPEKLVIKNQQFHKEREQPPRFAQPGSFEYEYAMRWKALIEMEKQQQDQVDRNIKEAREKLEMEMEAARHEHQVMLMRQDLMRRQEELRRMEELHNQEVQKRKQLELRQEEERRRREEEMRRQQEEMMRRQQEGFKGTFPDAREQEIRMGQMAMGGAMGINNRGAMPPAPVPAGTPAPPGPATMMPDGTLGLTPPTTERFGQAATMEGIGAIGGTPPAFNRAAPGAEFAPNKRRRY
